Experimental data as given in PubChem BioAssay AID504834 (National Center for Advancing Translational Sciences (NCATS), 2011).
Among all 320,000 compounds or so, about 22,000 (6.9%) were called active. The inconclusive results got no clear call from the source; some entries with a clear call stand among them for comparison. Calls follow the shape of the dose curve; as a rule, active = well fitted inhibition curve with a large enough effect; inconclusive = small, poorly fitted or top-dose-only effect, or another doubt; inactive = no such curve, though single readings can be large or run the other way. Potencies beside an inconclusive call are fits to weak or partial responses and may not hold up.

Assay: Primary qHTS for delayed death inhibitors of the malarial parasite plastid, 96 hour incubation
Conditions: P. falciparum luciferase reporter growth; series mostly up to 28.7 µM
How it was run: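 P. falciparum expressing integrated firefly luciferase grown in erythrocytes (2% hematocrit, 0.05% parasitemia final) with compounds for 96 hours at 37 C, 5% CO2. Growth inhibition read as loss of luminescence after adding luciferase detection reagent.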
Potency is read from the fitted curve at half-maximal effect.

Which Potency does the source give for CCOC(=O)c1c(S(=O)(=O)NCC(=O)Nc2cccc(C)c2C)c(C)n(C)c1C here?
The Potency was inconclusive: 11.7 µM [inhibitor, single point].

Which Potency does the source give for O=C(CN1CCN(S(=O)(=O)c2cc(Cl)ccc2Cl)CC1)c1ccc(O)c(O)c1 here?
Its Potency is inconclusive: 0.738 µM [inhibitor, full curve].

Which Potency does the source give for O=C(c1cccc(Cl)c1)C1CCCN(Cc2ccc(N3CCNC3=O)cc2)C1 (stereo not given) here?
Its Potency is active: 9.28 µM.

With OC1CCN(c2ncnc3nc[nH]c23)CC1 as the molecule, how does the Potency read?
Its Potency is “inactive”.

With Nc1ccccc1SC1CC(=O)N(c2ccc3c(c2)OCO3)C1=O (stereo not given) as the molecule, how does the Potency read?
Its Potency is “inactive”.

For CC(CCc1ccc(O)cc1)NCCc1ccc(O)c(O)c1 (stereo not given), which Potency is on record?
Its Potency is active: 1.51 µM.

With CN1CCN(C(=O)/C(=C/c2cccs2)NC(=O)c2ccco2)CC1 as the molecule, how does the Potency read?
Its Potency is inconclusive: 18.5 µM [inhibitor, single point].

For Cc1cccc(Nc2nnc(SCC(=O)NC(=O)CN3CCCC3=O)s2)c1, which Potency is on record?
The Potency was “inactive”.

Which Potency does the source give for COc1cc(OC)c(OC)cc1/C=C(\C#N)C(=O)NCc1cccs1 here?
The Potency was “inactive”.

Which Potency does the source give for COc1ccc(Nc2ccc(Cl)nn2)cc1 here?
The Potency was “inactive”.

With CSc1cccc(NC(=O)CCNS(=O)(=O)c2ccc3[nH]c(=O)oc3c2)c1 as the molecule, how does the Potency read?
The Potency was inconclusive: 18.5 µM [inhibitor, single point].

With COCC1CCN(Cc2cn(Cc3ccccc3)nc2-c2cc3ccccc3o2)CC1 as the molecule, how does the Potency read?
Its Potency is “inactive”.

For CCc1cc(-c2n[nH]c(=S)n2-c2ccccc2C)cs1, which Potency is on record?
The Potency was inconclusive: 11.7 µM [inhibitor, single point].

With CC(C)S(=O)(=O)c1csc(NC(=O)Nc2cc(Cl)ccc2Cl)c1Cl as the molecule, how does the Potency read?
Its Potency is inconclusive: 14.7 µM [inhibitor, single point].

Which Potency does the source give for COC(=O)c1ccc(COC(=O)C(NC(=O)Cc2ccccc2)C(C)C)cc1 (stereo not given) here?
The Potency was inconclusive: 0.185 µM [inhibitor, full curve, poor fit].

With CCN(CC)S(=O)(=O)c1ccc(C(=O)NCCN(C)C)cc1 as the molecule, how does the Potency read?
Its Potency is “inactive”.

With COc1ccc(/C=C/c2nc(S(=O)(=O)c3ccccc3)c(N(C)C)o2)cc1OC as the molecule, how does the Potency read?
Its Potency is inconclusive: 13.1 µM [inhibitor, single point].

For O=C(NCCCn1ccnc1)c1cc(Cl)cc(Cl)c1, which Potency is on record?
The Potency was “inactive”.

With COC(=O)c1ccc2c(c1)C(C)(C)C(/C=C/c1ccccc1O)=[N+]2C as the molecule, how does the Potency read?
The Potency was inconclusive: 2.94 µM [inhibitor, full curve, poor fit].

For Cc1ccc(S(=O)(=O)N2CCN(C(=O)CCN3C(=O)c4ccccc4C3=O)CC2)cc1C, which Potency is on record?
The Potency was inconclusive: 18.5 µM [inhibitor, single point].

Which Potency does the source give for O=[N+]([O-])c1ccccc1/C=N/n1c(-c2ccccc2)n[nH]c1=S here?
Its Potency is inconclusive: 18.5 µM [inhibitor, single point].

For CCC(=O)c1ccc(OCC(O)CNC2CCCC2)cc1 (stereo not given), which Potency is on record?
The Potency was inconclusive: 14.7 µM [inhibitor, single point].

With COCCCNc1nc2c(c(=O)n(Cc3ccc(Cl)cc3)c(=O)n2C)n1C as the molecule, how does the Potency read?
Its Potency is inconclusive: 13.1 µM [inhibitor, single point].

For O=C(O)Cn1ccc2cc(S(=O)(=O)N3CCCCCC3)ccc21, which Potency is on record?
Its Potency is inconclusive: 13.1 µM [inhibitor, single point].

For CC1=C(C#N)C(=O)NC(=O)/C1=C\c1ccc(-c2ccc(C)cc2[N+](=O)[O-])o1, which Potency is on record?
The Potency was “inactive”.

With COc1ccc(-c2cc(C(=O)Nc3cc(C)on3)no2)cc1 as the molecule, how does the Potency read?
Its Potency is inconclusive: 16.5 µM [inhibitor, single point].

Which Potency does the source give for COc1ccc(CNc2nc3ccc(C)cc3s2)c(OC)c1OC here?
Its Potency is “inactive”.

With Cc1ccc2nc(-c3ccc(SCC(=O)O)nc3)[nH]c2c1 as the molecule, how does the Potency read?
The Potency was inconclusive: 18.5 µM [inhibitor, single point].

For O=C(O)c1ccccc1NC(=S)NC(NC(=O)c1ccccc1[N+](=O)[O-])C(Cl)(Cl)Cl (stereo not given), which Potency is on record?
The Potency was active: 13.1 µM.

With Cc1cccc(CNC(=O)C2CCC(=O)N(C3CCCCCC3)C2)c1 (stereo not given) as the molecule, how does the Potency read?
Its Potency is inconclusive: 1.17 µM [inhibitor, partial curve, poor fit].

For CCCCn1c(NCc2ccc(N(C)C)cc2)nc2ccccc21, which Potency is on record?
The Potency was “inactive”.

Which Potency does the source give for COc1ccccc1CN1C[C@@H]2C[C@@H](c3cccc(C)c3)N3CCC[C@@]23C1=O here?
Its Potency is active: 10.4 µM.

Which Potency does the source give for O=C(/C=C/c1ccc2c(c1)OCO2)c1ccco1 here?
The Potency was active: 6.57 µM.

For CCCCCCCC#Cc1ccccc1/C=N/S(=O)c1ccc(C)cc1 (stereo not given), which Potency is on record?
Its Potency is “inactive”.

For Cc1cc(C)c2c(=O)[nH]c(SCC(=O)c3ccc(C)c(C)c3)nc2n1, which Potency is on record?
Its Potency is “inactive”.

With CCOC(=O)C1(Cc2ccccc2C(F)(F)F)CCN(CC2CC2)CC1 as the molecule, how does the Potency read?
The Potency was “inactive”.

Which Potency does the source give for Cc1ccc(NC(=O)c2nc[nH]c2C(=O)NCc2ccccc2)cc1 here?
The Potency was inconclusive: 5.86 µM [inhibitor, single point].

With O=C(Cn1nc(Cc2cccnc2)c2ccccc2c1=O)NCc1ccc2c(c1)OCO2 as the molecule, how does the Potency read?
Its Potency is inconclusive: 18.5 µM [inhibitor, single point].

Which Potency does the source give for Cc1ccc(C)c(N2CCN(C(=O)c3ccc4c(=O)n5c(nc4c3)CCCCC5)CC2)c1 here?
Its Potency is inconclusive: 8.28 µM [inhibitor, partial curve, poor fit].

With CCn1c(SCC(=O)NC2CCCCC2)nc2c(c1=O)SCC2 as the molecule, how does the Potency read?
Its Potency is inconclusive: 10.4 µM [inhibitor, partial curve, poor fit].

For COC(=O)COc1cc(Cl)c(C=O)cc1OC, which Potency is on record?
The Potency was inconclusive: 11.7 µM [inhibitor, single point].

For CC(CN1CCOCC1)OC(=O)c1cccc(Cl)c1 (stereo not given), which Potency is on record?
Its Potency is “inactive”.

With O=C(Cn1c(=O)oc2cc(S(=O)(=O)N3CCc4ccccc43)ccc21)NC1CCCC1 as the molecule, how does the Potency read?
Its Potency is inconclusive: 0.415 µM [inhibitor, full curve, poor fit].

With O=C(c1ccccc1)c1ccc(OC(=O)N2CCOCC2)cc1 as the molecule, how does the Potency read?
Its Potency is inconclusive: 10.4 µM [inhibitor, single point].

With CCN(c1cccc(C)c1)S(=O)(=O)c1ccc(-c2coc(C)n2)cc1 as the molecule, how does the Potency read?
The Potency was inconclusive: 9.28 µM [inhibitor, single point].

With C=CCNc1oc(-c2cccc3ccccc23)nc1C#N as the molecule, how does the Potency read?
The Potency was inconclusive: 18.5 µM [inhibitor, single point].

For Cc1nc2ccccn2c1C(=O)N/N=C/c1ccccc1, which Potency is on record?
The Potency was “inactive”.

Which Potency does the source give for COc1cc(CNCc2cccnc2)ccc1OCC(=O)NC1CCCCC1 here?
The Potency was “inactive”.

Which Potency does the source give for COCCCNC(=S)N/N=C/c1ccc2ccccc2c1 here?
The Potency was inconclusive: 18.5 µM [inhibitor, single point].

For NS(=O)(=O)c1ccc(NC(=O)CSC2=NC(=O)C(c3ccccc3)C(=O)N2)cc1 (stereo not given), which Potency is on record?
The Potency was inconclusive: 5.22 µM [inhibitor, partial curve, poor fit].

Which Potency does the source give for CC(=O)OC1COC(n2c(O)c(N=NC(N)=S)c3ccccc32)C(OC(C)=O)C1OC(C)=O (stereo not given) here?
The Potency was inconclusive: 11.7 µM [inhibitor, single point].

Which Potency does the source give for CCOC(=O)c1sc2nc3c(cc2c1N)COC(C)(C)C3 here?
Its Potency is “inactive”.

Which Potency does the source give for CCn1c(C)nc2cc(C(=O)NNC(=S)Nc3ccc(F)cc3)ccc21 here?
Its Potency is “inactive”.

For CCc1ccc(NC(=O)CSc2nc3ccccc3nc2N2CCCCC2)cc1, which Potency is on record?
The Potency was inconclusive: 7.38 µM [inhibitor, partial curve, poor fit].

With O=S1(=O)N=C2CCCCCN2C(c2ccc(Br)cc2)N1 (stereo not given) as the molecule, how does the Potency read?
The Potency was inconclusive: 18.5 µM [inhibitor, single point].

For COc1ccc(-c2onc(C)c2-c2cnn(-c3ccccc3)c2)c(O)c1, which Potency is on record?
Its Potency is “inactive”.

Which Potency does the source give for O=C(NCc1cccc(F)c1)C1CCC(=O)N(CCc2cccc(F)c2)C1 (stereo not given) here?
The Potency was “inactive”.

With COc1ccccc1NC(=O)CN(c1ccccc1C)S(C)(=O)=O as the molecule, how does the Potency read?
Its Potency is inconclusive: 11.7 µM [inhibitor, single point].

For Cn1c(=O)c2ccccc2n(Cc2cccc(F)c2)c1=O, which Potency is on record?
The Potency was inconclusive: 10.4 µM [inhibitor, single point].

For COc1ccc(Cn2ccnc2SCC(=O)Nc2ccccc2)cc1, which Potency is on record?
The Potency was “inactive”.

With Cc1cc(C(C)(C)C)ccc1OCCN1CCCC1 as the molecule, how does the Potency read?
The Potency was inconclusive: 18.5 µM [inhibitor, single point].

For C/C=C/c1ccc2c(c1)OCO2, which Potency is on record?
Its Potency is “inactive”.

With Cc1cc(N2CCN(c3nc(-c4ccccc4)cs3)CC2)c2ccccc2n1 as the molecule, how does the Potency read?
The Potency was “inactive”.

Which Potency does the source give for Cc1cccc(C)c1NC(=O)CN1CCN(C(=O)CNC(=O)c2ccc(N3CCCC3=O)cc2)CC1 here?
Its Potency is inconclusive: 11.7 µM [inhibitor, single point].

Which Potency does the source give for C/C(N)=C(/C#N)C(=O)CSc1nc2ccccc2c(=O)n1-c1ccccc1C here?
Its Potency is inconclusive: 7.38 µM [inhibitor, partial curve].

With COc1cc2c(c(O)c1OC)-c1c(cc(OC)c(OC)c1OC)C[C@@H](C)[C@@H](C)C2 as the molecule, how does the Potency read?
Its Potency is inconclusive: 13.1 µM [inhibitor, partial curve, poor fit].

Which Potency does the source give for Cc1ccc(-c2cc(C(=O)NN=C3CCCC3)c3ccccc3n2)cc1 here?
Its Potency is inconclusive: 10.4 µM [inhibitor, partial curve].

With CCNC(=S)NNC(=O)c1cc(-c2ccc(OCC)cc2)nc2ccccc12 as the molecule, how does the Potency read?
Its Potency is “inactive”.

For COc1ccc(-c2cc(C(=O)N3CCc4ccccc4C3)no2)cc1OC, which Potency is on record?
Its Potency is inconclusive: 3.7 µM [inhibitor, full curve, poor fit].

For c1ccc(-c2nc3nc4ccccc4nc3n2Cc2ccco2)cc1, which Potency is on record?
Its Potency is “inactive”.

For Cc1ccc2cc(C=O)c(Cl)nc2c1, which Potency is on record?
The Potency was inconclusive: 18.5 µM [inhibitor, single point].

For COc1cccc(CNc2ccc(Br)cn2)c1O, which Potency is on record?
Its Potency is “inactive”.

Which Potency does the source give for Cc1cc2oc(=O)cc(CN3CCN(Cc4ccccc4)CC3)c2cc1O here?
The Potency was inconclusive: 10.4 µM [inhibitor, partial curve].

Which Potency does the source give for O=C(O)c1cccc(N/N=C/c2cccnc2)c1 here?
Its Potency is “inactive”.

With CC1CCC/C(=N\NC(=O)Nc2ccccc2)C1 (stereo not given) as the molecule, how does the Potency read?
The Potency was inconclusive: 18.5 µM [inhibitor, single point].
